# Laboratory results reported in PMC7819943, “Rice protein-binding microarrays: a tool to detect cis-acting elements near promoter regions in rice”.
# The chains behind the UniProt entries cited, without tags or fusion partners.
# UniProt Q0JBA9, entry or part of it: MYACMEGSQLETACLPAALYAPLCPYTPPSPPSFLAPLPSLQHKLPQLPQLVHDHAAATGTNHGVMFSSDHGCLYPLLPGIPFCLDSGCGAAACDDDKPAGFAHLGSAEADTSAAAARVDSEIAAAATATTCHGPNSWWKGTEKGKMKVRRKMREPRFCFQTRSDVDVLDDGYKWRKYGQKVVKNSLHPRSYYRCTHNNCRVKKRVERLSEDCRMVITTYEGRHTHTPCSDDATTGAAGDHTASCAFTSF
# The other results are listed elsewhere or left out.
# Molecular target: OsWRKY34 (Oryza sativa, UniProt Q0JBA9 1-250)
# Experiment: protein-binding microarray (RPBM); PBS, 2% BSA, 51.3 ng/ul salmon testes DNA, 50 uM zinc acetate, 200 nM TF, 25 C, 1 h; high values mean tight binding
# Details: protein: recombinant; tags: N-terminal polyhistidine and DsRed monomer fusion (pET32a); label: CyDye5-dUTP incorporated in the synthesized complementary strand; 3' TTTTT single-stranded linker to array surface; dsDNA, one strand shown
# Summary of the method: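 A custom Agilent array was converted to double-stranded form by primer extension with Cy5-dUTP and blocked with 2% BSA. Protein at 200 nM in PBS with 2% BSA, salmon testes DNA and 50 µM zinc acetate was applied for 1 h at 25 °C, followed by washing. The proteins were polyhistidine–DsRed N-terminal fusions of transcription factors, expressed in E. coli BL21-CodonPlus and Ni–NTA-purified. The binding signal is per-feature fluorescence intensity (arbitrary units) from an Axon 4000B scanner.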
row,Sequence,binding signal
1,CTCCTGCACGCTGTCAAGTTACCATTTCTTTGGTCTTTTCCGGAGTCACCTAGTGCAG,14200 fluorescence intensity (a.u.)
2,ACGTGCAGCTTTTTCTCGTCATCCCCGCACCATCGACGAGCGGAGTCACCTAGTGCAG,10600 fluorescence intensity (a.u.)
3,AAAGCTGGGACCCACCACCTGACGGCCTGACCCCACCATTCGGAGTCACCTAGTGCAG,8100 fluorescence intensity (a.u.)
4,ATTTTTTTGTCAGTCTGTCCTTACATGTGCCATTTTTTCACGGAGTCACCTAGTGCAG,12400 fluorescence intensity (a.u.)
5,GACGTGGAGTCGTTGGTGTTTGGTTCAGTATCCTCGCTCTCGGAGTCACCTAGTGCAG,10700 fluorescence intensity (a.u.)
6,CAAAAGTGGTCCTTGTGTTTGTGTGGCATTAGGATTAGGTCGGAGTCACCTAGTGCAG,9720 fluorescence intensity (a.u.)
7,GTGTTCCGGTTCAGGCTATTGAGGTCCTTTCGATCACGCGCGGAGTCACCTAGTGCAG,9420 fluorescence intensity (a.u.)
8,CCGCTGTTCTTATCTTCCCCACTCGTGCCTGGCTCTCTCTCGGAGTCACCTAGTGCAG,8530 fluorescence intensity (a.u.)
9,TTACGTACTGTAGTTCTATGCTTCTATTGCTGTATGAGCACGGAGTCACCTAGTGCAG,9050 fluorescence intensity (a.u.)
10,GTACTACCGCCGTGGCCATATCGCTCATTCATGATTCATCCGGAGTCACCTAGTGCAG,8680 fluorescence intensity (a.u.)
11,GACTACATTTACTTGGTCACTTTTCTTGAATACACTTCCCCGGAGTCACCTAGTGCAG,9330 fluorescence intensity (a.u.)
12,GGCTCGGCTCGCGTCCTCTTCCTCCTCGCATCGCATCGCACGGAGTCACCTAGTGCAG,8560 fluorescence intensity (a.u.)
13,GAAATCTTTTACGGTGGTGATACATTATATATTGATAGATCGGAGTCACCTAGTGCAG,8340 fluorescence intensity (a.u.)
14,CTTTTCGTAACCCTTTCAGCAATTCTAGTCATTGATGATTCGGAGTCACCTAGTGCAG,9090 fluorescence intensity (a.u.)
15,CCTCCACACCTACCAACCCTACTGTCACTAATAAATCATTCGGAGTCACCTAGTGCAG,8350 fluorescence intensity (a.u.)
16,ATGGTTGCTTGTATGGTGGATCCTTGCTATTGAATTGGAGCGGAGTCACCTAGTGCAG,11000 fluorescence intensity (a.u.)
17,TTCTTTTCGTCTTTTTTTACATGGGATCGGATTCATTTTTCGGAGTCACCTAGTGCAG,9690 fluorescence intensity (a.u.)
18,TCCATCTCATCTCATTCGTCCATCCGCCATCTCATCTAATCGGAGTCACCTAGTGCAG,8580 fluorescence intensity (a.u.)
19,CCACTGCCCTGTCTTTGCACACATCAGTCTTCCCGGAGTTCGGAGTCACCTAGTGCAG,8640 fluorescence intensity (a.u.)
20,GAGGAGGCAAATGGGGAGGGGAAGCGATCGGAGGAGGCGGCGGAGTCACCTAGTGCAG,8320 fluorescence intensity (a.u.)
21,GTAGATGGAGAGGGTATTGTAGCAGGATGTTACTGTGATACGGAGTCACCTAGTGCAG,8190 fluorescence intensity (a.u.)

# Single values from above:
# GAAATCTTTTACGGTGGTGATACATTATATATTGATAGATCGGAGTCACCTAGTGCAG – binding signal: 8340 fluorescence intensity (a.u.)
# AAAGCTGGGACCCACCACCTGACGGCCTGACCCCACCATTCGGAGTCACCTAGTGCAG – binding signal: 8100 fluorescence intensity (a.u.)
# CCACTGCCCTGTCTTTGCACACATCAGTCTTCCCGGAGTTCGGAGTCACCTAGTGCAG – binding signal: 8640 fluorescence intensity (a.u.)
# CCTCCACACCTACCAACCCTACTGTCACTAATAAATCATTCGGAGTCACCTAGTGCAG – binding signal: 8350 fluorescence intensity (a.u.)

# Continuation:

row,Sequence,binding signal
1,ACCACAAACTAATTATAGGTGCATACTTTCTATTTGCGCACGGAGTCACCTAGTGCAG,9210 fluorescence intensity (a.u.)
2,GTCGGATATCGTGTCATGTTTCCCATTGCCATCTCTAGTCCGGAGTCACCTAGTGCAG,9440 fluorescence intensity (a.u.)
3,AGCACCCAAGTCCCACTATATCAAGTCCAAACCTATCCTCCGGAGTCACCTAGTGCAG,8340 fluorescence intensity (a.u.)
4,GGTAAGGGAAACCATGGGGTGGGCTACGCTTGCAATGCTCCGGAGTCACCTAGTGCAG,8370 fluorescence intensity (a.u.)
5,GACATTTCACTTTGAACCATACTTTTCCTAATCTGTTTTACGGAGTCACCTAGTGCAG,11400 fluorescence intensity (a.u.)
6,CTCTTTTCTTTCTTTTCTTTTCCTTTCTTTTTCCTTTCTTCGGAGTCACCTAGTGCAG,8540 fluorescence intensity (a.u.)
7,CTCTTCATTCCATCCATCCATGCATTCATGTATTTAATGACGGAGTCACCTAGTGCAG,8110 fluorescence intensity (a.u.)
8,ACGGTGTATATTTGTGGTGTGGCGGGTGTGGCATTGGATTCGGAGTCACCTAGTGCAG,16700 fluorescence intensity (a.u.)
9,CAATCAAATCATAACTTCACAGCTCCTGTTCTCACATTATCGGAGTCACCTAGTGCAG,8520 fluorescence intensity (a.u.)
10,GGATGTGCTTTTCCTGACATGTATTTTATTATGCTATTGCCGGAGTCACCTAGTGCAG,9400 fluorescence intensity (a.u.)
11,TGAGAGAGAATCTGTGCCTGTAAATGGGGTAGGTAAAGAACGGAGTCACCTAGTGCAG,8150 fluorescence intensity (a.u.)
12,TATGAGTGTGTGACTGTGTGTGAGTGTGTCATGACTTTTGCGGAGTCACCTAGTGCAG,8940 fluorescence intensity (a.u.)
13,CGCGCCACGGGCACCCGCTCTCTCGCGCCTACTCTCTCTCCGGAGTCACCTAGTGCAG,11200 fluorescence intensity (a.u.)
14,CACATTACAACTACCTTGATTGGAGGCTTCTCATATTATACGGAGTCACCTAGTGCAG,9190 fluorescence intensity (a.u.)
15,TCTTTTTTTTTTCTTTTTGCAGTACTTTGTACCAGTAATTCGGAGTCACCTAGTGCAG,8420 fluorescence intensity (a.u.)
16,GTATATGTTTGTCTCGAAAATCCTTTTTTTTGGCTATTTACGGAGTCACCTAGTGCAG,8810 fluorescence intensity (a.u.)
17,CAGGATATATAGTTCTGTTGAGTAGTTTTATGTGGTAATCCGGAGTCACCTAGTGCAG,8620 fluorescence intensity (a.u.)
18,ATCAACTAAGCAATCGTTTCCTTATGTTCCTCGTATGCAACGGAGTCACCTAGTGCAG,9460 fluorescence intensity (a.u.)
19,GAACTTATTCCACCCACTATCCAGACACCAAGTGACCGAGCGGAGTCACCTAGTGCAG,8310 fluorescence intensity (a.u.)
20,ATATAAATTGTGCAATTATTTTTTTTCGTCCACATTTAATCGGAGTCACCTAGTGCAG,10000 fluorescence intensity (a.u.)
21,GACCGGACGCTTGAGACCGCTGACCTTTGACCCGCATGATCGGAGTCACCTAGTGCAG,11400 fluorescence intensity (a.u.)

row,Sequence,binding signal
1,TTCTTCTCCTTTTTTTGCTTCGAATTTTCGGTGTCGATCTCGGAGTCACCTAGTGCAG,8100 fluorescence intensity (a.u.)
2,CTGGCATCGTCCTTCTTGTACCCCGACGACCAACTGCTCTCGGAGTCACCTAGTGCAG,10400 fluorescence intensity (a.u.)
3,CGCTCATACTTTCTGTGTTCCACAACTCTGTGTTTGGTTTCGGAGTCACCTAGTGCAG,9240 fluorescence intensity (a.u.)
4,ATTGTTCATTTGTCGTTCCATTACATGTAACTTCACTTCACGGAGTCACCTAGTGCAG,17000 fluorescence intensity (a.u.)
5,TGAATCTCCTTGTTAAATAACTCTCTACTCTCGCCTGACACGGAGTCACCTAGTGCAG,8050 fluorescence intensity (a.u.)
6,ATGGACCACAGCCCCACCACCCCAGTTTTGCCACCTCCTTCGGAGTCACCTAGTGCAG,10200 fluorescence intensity (a.u.)
7,TAATATTTAATTAATCTCACTATAATCGTGTGTTTCGTTTCGGAGTCACCTAGTGCAG,8570 fluorescence intensity (a.u.)
8,CGCCCACACCGCGAACTGCAGCACCGGCGCCACCGCCCGCCGGAGTCACCTAGTGCAG,8180 fluorescence intensity (a.u.)
9,AGCCCATGTCTAGATTCATATCCAGAGCTTTTACTTCTTACGGAGTCACCTAGTGCAG,11100 fluorescence intensity (a.u.)
10,TGAATTAGCGATCATGTTCAGTAACTTGTCTATCTGTTTTCGGAGTCACCTAGTGCAG,8030 fluorescence intensity (a.u.)
11,AATTTAATTGCGAGGGCGAGTACTTGTCTGTTTACCTTTTCGGAGTCACCTAGTGCAG,8450 fluorescence intensity (a.u.)
12,TAGGATTCGATCCCACGTCCCGGTTCTTTCGCGTCCATCCCGGAGTCACCTAGTGCAG,8520 fluorescence intensity (a.u.)
13,CACCCGCTTTTATACCCACACCCTCTCTCTCTCTCTCTCTCGGAGTCACCTAGTGCAG,8810 fluorescence intensity (a.u.)
14,GACCGTTCGCTATCCTCCTGCAACTTCACATTCTCTGCCACGGAGTCACCTAGTGCAG,12900 fluorescence intensity (a.u.)
15,TCCATTTTCACCTATCTCATATGTATTTATCTCTAATTTTCGGAGTCACCTAGTGCAG,9830 fluorescence intensity (a.u.)
16,TCCTCCGGCTTATCTCCTCGCGAGCCACGAGGCGCCTACACGGAGTCACCTAGTGCAG,8300 fluorescence intensity (a.u.)
17,TTGCCTCTTTTTTTTTTTTGGCGCACCTCGATTAGTAGTACGGAGTCACCTAGTGCAG,12400 fluorescence intensity (a.u.)
18,TACGACTACCTGTGGCTCCGCATCTCGCCGTCTTCAACTCCGGAGTCACCTAGTGCAG,10400 fluorescence intensity (a.u.)
19,CGCCATCACCCCAATCGCTGCTGCGCCGTCGCCACAGGTTCGGAGTCACCTAGTGCAG,9250 fluorescence intensity (a.u.)
20,GCCATCAAGCTACGCCATTCAGCATTGCAACGACGACGTCCGGAGTCACCTAGTGCAG,64300 fluorescence intensity (a.u.)
21,TCTCTTCTAATCCGCTCTCAGTAGATTTACCCCGTACTTACGGAGTCACCTAGTGCAG,9130 fluorescence intensity (a.u.)

row,Sequence,binding signal
1,TCTTCTTCTTCATCCTGTTGTTTGCATCCTGTATGTCGCACGGAGTCACCTAGTGCAG,9720 fluorescence intensity (a.u.)
2,GTGCGAGCCCGTTCCGTTCCTTGTTCCTTGCGATGAGAGGCGGAGTCACCTAGTGCAG,8460 fluorescence intensity (a.u.)
3,GAAGCTTTTTTATCCTTTTTTTAGTCGGACTTTTCTTTTACGGAGTCACCTAGTGCAG,9660 fluorescence intensity (a.u.)
4,AGGGTGGGTTACGTCGACAGACACTGGATAAGATCAATCCCGGAGTCACCTAGTGCAG,11900 fluorescence intensity (a.u.)
5,TTAGCCTAGCCCGACCGACCGGTAAACACGCGCCCCACCACGGAGTCACCTAGTGCAG,8070 fluorescence intensity (a.u.)
6,AACTACTACCTACCCATTCCGTTTCCTTCCGTCCTTGCCACGGAGTCACCTAGTGCAG,9170 fluorescence intensity (a.u.)
7,GTATTCCTCTCTCTCTCTCTCCTTTTCTTTTCTTCTTTTTCGGAGTCACCTAGTGCAG,10000 fluorescence intensity (a.u.)
8,TCGGTGACAAAGGTGGTGGGATCTTGCTTCTCTTCCTGCACGGAGTCACCTAGTGCAG,8300 fluorescence intensity (a.u.)
9,CCCTTTGACCTACCGCGGCGCCGCCCACCTGCGCCGGCATCGGAGTCACCTAGTGCAG,8300 fluorescence intensity (a.u.)
10,GCGGCAGGTTTCGGCGGCGGGGCGGGCGGCAGGTGTCGGCCGGAGTCACCTAGTGCAG,20000 fluorescence intensity (a.u.)
11,TGCTCAACTTCTGGTCTTTTTTCTTATGGCTACTTCTATCCGGAGTCACCTAGTGCAG,11600 fluorescence intensity (a.u.)
12,GCAGTGGTCACGCCCAAATCATCTTCTCGCCTCTGCTTCTCGGAGTCACCTAGTGCAG,8540 fluorescence intensity (a.u.)
13,ATAGGAATTTTTTGTTCTCCATGCACAGGATTCTTACAACCGGAGTCACCTAGTGCAG,8200 fluorescence intensity (a.u.)
14,ACCATTTGTTTTTTGATACCTTGTGTGCTTGCTCTGCAATCGGAGTCACCTAGTGCAG,13300 fluorescence intensity (a.u.)
15,TTTTTGTCAAAAGTAGTACTCCATATATGTTTTTTTACTACGGAGTCACCTAGTGCAG,8900 fluorescence intensity (a.u.)
16,GTGTTTGGGGTTCTTGGAATTGATCATGGCAGGTGGCGAACGGAGTCACCTAGTGCAG,8730 fluorescence intensity (a.u.)
17,CGCTGCCTAGATCTTTCCTCTCTCTCGCACCCTCTTATTGCGGAGTCACCTAGTGCAG,12000 fluorescence intensity (a.u.)
18,AGTGTTTTTCTTCCAGCATTACTACGTACTGTACCTTCTTCGGAGTCACCTAGTGCAG,8460 fluorescence intensity (a.u.)
19,AGCTATCCTGTTTCAATGTACTTCAGCTGACTTGAACAATCGGAGTCACCTAGTGCAG,9900 fluorescence intensity (a.u.)
20,ATATGTAGTATTCCTATCCTATGTTTGTGGATTCTGACTTCGGAGTCACCTAGTGCAG,8200 fluorescence intensity (a.u.)
21,TTTAGACTTGCTCCGCTTCTTTAAGGCATTTTTGTTTGGACGGAGTCACCTAGTGCAG,8650 fluorescence intensity (a.u.)
